Results taken from patent publication US20230192608A1, “WATER-SOLUBLE, MODIFIED AMINO ACID DERIVATIVES FOR TREATMENT OF NEUROLOGICAL DISEASES, AND SELECTED PSYCHIATRIC DISORDERS” (Uniwersytet Jagiellonski, priority 2020, published 2023).
Some results were stated once for a whole list of compounds, not compound by compound. Some ranges recur; such a range may be that of the whole group of compounds.

Legend:
[1] = test system: male white Swiss mice (CD-1); test: Anticonvulsant screening summarised over MES, scPTZ and 6 Hz (32 mA) models; type: in vivo; details: 100 mg/kg intraperitoneal, span over the three models
Procedure: The studies were carried out on male white Swiss mice (CD-1) weighing 18-26 g. All procedures were performed in accordance with the applicable Polish and international guidelines for the ethics of animal research, after obtaining of the appropriate institutional consent. […] Screening tests were performed in groups consisted of 4 mice. All tests were performed according to the procedures described in the specialist literature: maximal electroshock test (MES) (Kamiński et al. Bioorg. Med. Chem. 2015, 23, 2548-2561; Castel-Branco et al. Pharmacol. 2009, 31, 101-106, Riban et al. Neurosci. 2002, 112, 101-111); psychomotor seizure test (6 Hz, 32 mA) (Barton et al. Epilepsy Res. 2001, 47, 217-227; Wojda et al. Epilepsy Res. 2009, 86, 163-174); subcutaneous pentylenetetrazole test (scPTZ) (Ferreri et al. Pharmacol. Biochem. Behav. 2004, 77, 85-94).
These models are recognized as the most important and widely used pharmacological tests allowing the identification of candidates for new antiepileptic drugs. […] This is crucial in situations requiring immediate intervention to stop seizures, including, e.g status epilpepticus, which is considered as a life-threatening situation.

[2] = Water solubility test at 25° C. per 1 gram of compound (European Pharmacopoeia 10.0 / Polish Pharmacopoeia XII)

| SMILES | Animals protected in MES, scPTZ and 6 Hz (32 mA) models [1] | also measured |
| --- | --- | --- |
| CC(C(=O)NCc1ccccc1F)N1CCCC1=O [(2R,S)-4, (2R,S)-N-(2-fluorobenzyl)-2-(2-oxopyrrolidin-1-yl)propanamide] | 25-100% |  |
| CC(C(=O)NCc1ccccc1)N1CCCC1=O (stereo not shown) [Compound 3, N-benzyl-2-(2-oxopyrrolidin-1-yl)propanamide] |  | Matching term (solubility in water, pharmacopoeial terminology) ([2]; listed as compound 3): good water solubility |
| CC(C(=O)NCc1ccccc1F)N1CCCC1=O (stereo not shown) [Compound 4, N-(2-fluorobenzyl)-2-(2-oxopyrrolidin-1-yl)propanamide] |  | Matching term (solubility in water, pharmacopoeial terminology) ([2]; listed as compound 4): good water solubility |
| C[C@H](C(=O)NCc1ccccc1)N1CCCC1=O [Compound (2R)-3, (2R)-N-benzyl-2-(2-oxopyrrolidin-1-yl)propanamide] | 25-100% |  |
| C[C@H](C(=O)NCc1ccccc1F)N1CCCC1=O [Compound (2R)-4, (2R)-N-(2-fluorobenzyl)-2-(2-oxopyrrolidin-1-yl)propanamide] | 25-100% |  |
| C[C@@H](C(=O)NCc1ccccc1)N1CCCC1=O [Compound (2S)-3, (2S)-N-benzyl-2-(2-oxopyrrolidin-1-yl)propanamide] | 25-100% |  |
| C[C@@H](C(=O)NCc1ccccc1F)N1CCCC1=O [Compound (2S)-4, (2S)-N-(2-fluorobenzyl)-2-(2-oxopyrrolidin-1-yl)propanamide] | 25-100% |  |
